Test system: atherosclerotic plaques, VCAM-1
Experiment: Ex vivo uptake of 18F-4V in excised aortas
Parameters: species or system mouse
Conditions: apoE-/- mice, atorvastatin enriched in diet, 0.01% wt/wt; p<0.05

In the case of `CC(C)c1c(C(=O)Nc2ccccc2)c(-c2ccccc2)c(-c2ccc(F)cc2)n1CC[C@@H](O)C[C@@H](O)CC(=O)O` [atorvastatin, reference compound], the “effect of treatment on uptake of 18F-4V in excised aortas” value is reported as “significantly reduced uptake”.
